In publication PMC7862700:
The entries are a selection whose mix differs from that of the whole data set. For part of these data: At the low end of the ranking, values are background and their order means little. The list shows a part of the results. For part of these data: The source does not settle which construct or isoform was used.

By UniProt entry, the sequences of proteins in these tests, tags left out. Where a name states a change or a piece, a line headed by the entry shows the natural chain unless it says otherwise.
UniProt P32519: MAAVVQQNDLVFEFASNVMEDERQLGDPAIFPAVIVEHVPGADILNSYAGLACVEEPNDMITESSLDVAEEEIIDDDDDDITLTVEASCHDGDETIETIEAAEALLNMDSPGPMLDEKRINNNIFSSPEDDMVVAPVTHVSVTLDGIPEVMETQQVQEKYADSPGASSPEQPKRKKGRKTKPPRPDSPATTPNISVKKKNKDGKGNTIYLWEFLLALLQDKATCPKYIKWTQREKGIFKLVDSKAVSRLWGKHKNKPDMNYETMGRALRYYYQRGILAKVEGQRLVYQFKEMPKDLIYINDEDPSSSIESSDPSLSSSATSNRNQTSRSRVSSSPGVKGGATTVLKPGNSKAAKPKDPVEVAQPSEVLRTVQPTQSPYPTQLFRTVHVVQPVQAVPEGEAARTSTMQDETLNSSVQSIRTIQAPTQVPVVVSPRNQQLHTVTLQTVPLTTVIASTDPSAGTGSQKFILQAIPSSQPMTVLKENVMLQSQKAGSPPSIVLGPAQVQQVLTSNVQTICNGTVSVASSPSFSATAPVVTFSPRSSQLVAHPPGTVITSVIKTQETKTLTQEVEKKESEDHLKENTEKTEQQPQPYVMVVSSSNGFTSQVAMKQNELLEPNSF
UniProt P50549: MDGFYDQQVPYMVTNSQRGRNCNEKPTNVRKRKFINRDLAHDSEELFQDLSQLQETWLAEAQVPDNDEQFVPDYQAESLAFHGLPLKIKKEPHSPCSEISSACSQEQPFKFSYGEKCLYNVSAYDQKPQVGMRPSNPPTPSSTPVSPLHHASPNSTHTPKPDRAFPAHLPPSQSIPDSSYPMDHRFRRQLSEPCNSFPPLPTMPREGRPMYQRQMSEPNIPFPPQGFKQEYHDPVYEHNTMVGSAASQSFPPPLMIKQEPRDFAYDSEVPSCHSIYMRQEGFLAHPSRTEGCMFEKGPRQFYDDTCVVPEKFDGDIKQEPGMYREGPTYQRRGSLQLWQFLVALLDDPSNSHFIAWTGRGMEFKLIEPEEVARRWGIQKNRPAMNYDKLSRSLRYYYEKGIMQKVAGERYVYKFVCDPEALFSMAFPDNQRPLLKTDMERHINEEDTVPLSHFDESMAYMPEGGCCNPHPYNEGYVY

How the values were obtained:
Experiment in all cases: DAPPL (digital affinity profiling via proximity ligation, sequencing)
Settings in all cases: 10 mM Tris-HCl pH 7.5, 50 mM NaCl, 1 mM DTT, 4% glycerol, room temperature, 30 min; GST-TFs on glutathione beads, 16-mer random dsDNA library, 0.1% …; high values mean tight binding; double strand, one strand shown; scale: fold enrichment (6-mer frequency, TF over GST control)
ERG = biological target: T1, ERG (UniProt P11308)
T1 sequence: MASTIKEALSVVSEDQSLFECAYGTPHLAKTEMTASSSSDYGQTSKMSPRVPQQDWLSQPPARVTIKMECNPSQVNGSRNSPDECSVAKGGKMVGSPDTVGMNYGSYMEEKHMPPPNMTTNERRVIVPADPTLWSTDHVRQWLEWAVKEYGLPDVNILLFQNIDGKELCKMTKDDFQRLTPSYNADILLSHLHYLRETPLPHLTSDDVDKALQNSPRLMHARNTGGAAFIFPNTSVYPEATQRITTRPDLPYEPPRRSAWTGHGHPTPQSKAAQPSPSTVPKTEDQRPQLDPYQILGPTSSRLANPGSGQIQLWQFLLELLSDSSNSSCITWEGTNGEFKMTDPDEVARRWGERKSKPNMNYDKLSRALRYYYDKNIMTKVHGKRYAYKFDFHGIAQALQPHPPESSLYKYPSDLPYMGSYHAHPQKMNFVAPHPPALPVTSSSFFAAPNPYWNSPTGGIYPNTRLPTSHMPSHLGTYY

ELF1 = ELF1 (UniProt P32519)
ELK4 = biological target: T2, ELK4 (UniProt P28324-2)
T2 sequence: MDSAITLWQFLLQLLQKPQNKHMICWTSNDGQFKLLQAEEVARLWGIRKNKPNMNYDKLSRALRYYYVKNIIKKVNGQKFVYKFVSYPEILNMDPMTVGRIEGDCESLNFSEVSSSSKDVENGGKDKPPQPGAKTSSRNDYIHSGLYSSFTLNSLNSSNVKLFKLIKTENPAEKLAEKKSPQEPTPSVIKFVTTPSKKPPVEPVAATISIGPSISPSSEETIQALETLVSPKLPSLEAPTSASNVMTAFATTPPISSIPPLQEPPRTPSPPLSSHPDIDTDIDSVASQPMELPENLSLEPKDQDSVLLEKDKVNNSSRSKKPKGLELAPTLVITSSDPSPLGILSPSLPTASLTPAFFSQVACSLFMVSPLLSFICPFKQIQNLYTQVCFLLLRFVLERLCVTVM

ETV4 = biological target: T3, ETV4 (UniProt P43268)
T3 sequence: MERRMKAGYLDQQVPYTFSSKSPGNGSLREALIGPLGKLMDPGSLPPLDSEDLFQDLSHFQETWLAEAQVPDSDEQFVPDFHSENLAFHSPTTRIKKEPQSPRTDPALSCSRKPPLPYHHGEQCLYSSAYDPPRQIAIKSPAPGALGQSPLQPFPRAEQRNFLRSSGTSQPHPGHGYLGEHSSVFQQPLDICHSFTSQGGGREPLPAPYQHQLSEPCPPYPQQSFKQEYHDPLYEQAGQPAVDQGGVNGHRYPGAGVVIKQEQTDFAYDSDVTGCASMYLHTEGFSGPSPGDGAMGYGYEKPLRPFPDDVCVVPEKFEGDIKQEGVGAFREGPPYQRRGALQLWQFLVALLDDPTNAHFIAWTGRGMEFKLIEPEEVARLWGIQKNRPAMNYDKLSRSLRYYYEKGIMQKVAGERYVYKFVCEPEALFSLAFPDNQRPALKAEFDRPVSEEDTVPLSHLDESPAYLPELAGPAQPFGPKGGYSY

ETV1 = ETV1 (UniProt P50549)
ERF = biological target: T4, ERF (UniProt P50548)
T4 sequence: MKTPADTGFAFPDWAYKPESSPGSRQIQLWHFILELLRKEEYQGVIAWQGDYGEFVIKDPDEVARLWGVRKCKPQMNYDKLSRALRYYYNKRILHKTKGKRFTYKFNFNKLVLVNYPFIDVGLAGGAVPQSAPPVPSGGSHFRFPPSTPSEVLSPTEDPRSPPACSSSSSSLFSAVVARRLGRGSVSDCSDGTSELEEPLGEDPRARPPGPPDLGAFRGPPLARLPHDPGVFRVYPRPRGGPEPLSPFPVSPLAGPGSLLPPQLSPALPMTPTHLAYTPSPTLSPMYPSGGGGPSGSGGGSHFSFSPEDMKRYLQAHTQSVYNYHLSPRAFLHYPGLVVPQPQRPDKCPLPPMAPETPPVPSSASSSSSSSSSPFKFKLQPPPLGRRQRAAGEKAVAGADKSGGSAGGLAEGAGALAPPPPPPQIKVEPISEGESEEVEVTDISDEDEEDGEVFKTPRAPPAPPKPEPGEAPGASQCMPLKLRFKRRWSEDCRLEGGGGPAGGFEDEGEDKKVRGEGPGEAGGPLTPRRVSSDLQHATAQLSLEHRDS

Sequence	binding signal (ERG)	binding signal (ELF1)	binding signal (ELK4)	binding signal (ETV4)	binding signal (ETV1)	binding signal (ERF)
CGAGGG	0.719	0.669	0.671	0.702	0.681	0.755
GTGGTG	0.997	0.927	0.974	0.881	0.916	0.926
CAGCCG	0.71	0.689	0.653	0.718	0.653	0.656
AGGTGA	0.52	0.601	0.515	0.578	0.521	0.533
GGCCAA	0.814	0.856	0.768	0.839	0.837	0.835
CGGCGT	0.903	0.854	0.904	0.87	0.922	0.925
GGGATC	0.638	0.632	0.712	0.617	0.687	0.582
TAGGAG	0.432	0.404	0.441	0.381	0.414	0.482
TAAGTG	0.804	0.818	0.802	0.832	0.76	0.828
GGGTTA	0.755	0.835	0.816	0.826	0.787	0.756
ACCGGG	0.473	0.497	0.555	0.51	0.539	0.487
GGTGGA	0.587	0.593	0.554	0.614	0.59	0.581
GACATA	0.872	0.912	0.789	0.864	0.895	0.835
CCGAGA	0.6	0.64	0.622	0.628	0.532	0.607
ATCGGG	0.449	0.432	0.479	0.467	0.471	0.465
ACGGAG	0.388	0.377	0.382	0.382	0.377	0.412
CGCATA	0.707	0.709	0.733	0.735	0.721	0.712
GTTGGA	0.468	0.47	0.406	0.443	0.467	0.501
GCAGTT	0.813	0.797	0.815	0.868	0.786	0.844
AGTCAA	0.637	0.628	0.631	0.593	0.702	0.645
GCCAGG	0.45	0.432	0.422	0.434	0.484	0.448
AGCGTG	0.391	0.361	0.456	0.381	0.4	0.38
AAAGAG	0.873	0.946	0.888	0.832	0.959	0.924
GCACCA	0.861	0.85	0.913	0.829	0.827	0.919
TGTCGG	0.344	0.352	0.342	0.349	0.342	0.356
GACAAG	0.773	0.826	0.687	0.762	0.76	0.774
GTGAAA	0.681	0.783	0.65	0.721	0.807	0.67
GTTGAG	0.692	0.636	0.697	0.672	0.659	0.66
GACAGC	0.778	0.832	0.752	0.79	0.775	0.864
CGGAGA	0.232	0.204	0.222	0.203	0.215	0.214

Single records, from the list above.
CGGCGT is listed with binding signal (ERG) = 0.903; binding signal (ELF1) = 0.854; binding signal (ELK4) = 0.904; binding signal (ETV4) = 0.87; binding signal (ETV1) = 0.922; binding signal (ERF) = 0.925
CCGAGA is listed with binding signal (ERG) = 0.6; binding signal (ELF1) = 0.64; binding signal (ELK4) = 0.622; binding signal (ETV4) = 0.628; binding signal (ETV1) = 0.532; binding signal (ERF) = 0.607
